Test system: Ehrlich ascites tumour
Details: Exp 18

## COc1cc2c(c(OC)c1OC)-c1ccc(OC)c(=O)cc1[C@@H](NC(C)=O)CC2 [Colchicine, reference compound]
At killing
  organs, findings on section: Normal organs
  subcutaneous fluid, findings on section: 0.5 mL
At killing (mouse 1 day 14, mice 2 and 3 day 16), control 37.3
  Animal weight on section: 32.8 g
